Our source for the binding values is PMC7979543.

Protein sequences, listed by entry. Tags and fused reporters are not part of them.
UniProt Q9NZJ0: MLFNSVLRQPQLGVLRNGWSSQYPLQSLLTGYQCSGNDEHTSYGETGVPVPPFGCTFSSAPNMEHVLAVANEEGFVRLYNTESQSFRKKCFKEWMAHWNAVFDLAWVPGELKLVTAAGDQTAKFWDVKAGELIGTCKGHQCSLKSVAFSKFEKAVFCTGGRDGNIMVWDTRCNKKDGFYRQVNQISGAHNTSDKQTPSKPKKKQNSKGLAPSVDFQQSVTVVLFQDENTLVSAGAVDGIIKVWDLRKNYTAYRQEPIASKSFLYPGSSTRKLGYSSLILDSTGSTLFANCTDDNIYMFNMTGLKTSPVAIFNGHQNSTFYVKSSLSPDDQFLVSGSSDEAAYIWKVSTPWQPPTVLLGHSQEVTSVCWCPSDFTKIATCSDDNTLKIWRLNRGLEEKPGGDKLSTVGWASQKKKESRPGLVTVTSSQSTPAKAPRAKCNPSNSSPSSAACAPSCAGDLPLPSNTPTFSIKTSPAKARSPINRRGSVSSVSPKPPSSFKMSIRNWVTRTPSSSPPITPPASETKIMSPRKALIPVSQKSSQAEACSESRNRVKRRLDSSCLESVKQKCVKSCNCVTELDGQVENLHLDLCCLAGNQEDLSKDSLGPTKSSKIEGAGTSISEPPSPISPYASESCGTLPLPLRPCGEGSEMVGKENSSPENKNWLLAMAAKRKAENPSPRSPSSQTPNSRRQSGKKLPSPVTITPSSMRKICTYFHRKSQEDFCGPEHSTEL
UniProt Q13619: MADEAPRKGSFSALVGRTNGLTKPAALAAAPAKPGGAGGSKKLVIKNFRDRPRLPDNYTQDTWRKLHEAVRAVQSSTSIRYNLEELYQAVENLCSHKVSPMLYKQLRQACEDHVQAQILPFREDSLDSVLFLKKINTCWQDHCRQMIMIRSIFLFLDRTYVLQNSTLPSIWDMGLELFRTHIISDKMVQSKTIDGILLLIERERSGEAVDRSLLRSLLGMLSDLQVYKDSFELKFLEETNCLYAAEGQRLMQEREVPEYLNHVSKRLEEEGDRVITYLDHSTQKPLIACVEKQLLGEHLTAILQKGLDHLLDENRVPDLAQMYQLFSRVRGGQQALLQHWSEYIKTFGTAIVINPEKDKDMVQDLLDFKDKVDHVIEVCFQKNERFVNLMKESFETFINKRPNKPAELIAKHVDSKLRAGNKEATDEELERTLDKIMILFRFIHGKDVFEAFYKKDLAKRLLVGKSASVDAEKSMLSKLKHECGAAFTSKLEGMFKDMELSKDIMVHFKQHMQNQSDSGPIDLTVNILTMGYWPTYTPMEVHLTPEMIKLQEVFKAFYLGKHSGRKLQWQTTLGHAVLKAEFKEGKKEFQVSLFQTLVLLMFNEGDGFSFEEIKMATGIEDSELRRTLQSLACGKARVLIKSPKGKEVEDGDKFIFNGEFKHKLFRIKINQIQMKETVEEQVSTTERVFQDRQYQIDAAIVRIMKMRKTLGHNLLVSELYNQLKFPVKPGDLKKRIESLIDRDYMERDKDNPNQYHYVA
UniProt P78527: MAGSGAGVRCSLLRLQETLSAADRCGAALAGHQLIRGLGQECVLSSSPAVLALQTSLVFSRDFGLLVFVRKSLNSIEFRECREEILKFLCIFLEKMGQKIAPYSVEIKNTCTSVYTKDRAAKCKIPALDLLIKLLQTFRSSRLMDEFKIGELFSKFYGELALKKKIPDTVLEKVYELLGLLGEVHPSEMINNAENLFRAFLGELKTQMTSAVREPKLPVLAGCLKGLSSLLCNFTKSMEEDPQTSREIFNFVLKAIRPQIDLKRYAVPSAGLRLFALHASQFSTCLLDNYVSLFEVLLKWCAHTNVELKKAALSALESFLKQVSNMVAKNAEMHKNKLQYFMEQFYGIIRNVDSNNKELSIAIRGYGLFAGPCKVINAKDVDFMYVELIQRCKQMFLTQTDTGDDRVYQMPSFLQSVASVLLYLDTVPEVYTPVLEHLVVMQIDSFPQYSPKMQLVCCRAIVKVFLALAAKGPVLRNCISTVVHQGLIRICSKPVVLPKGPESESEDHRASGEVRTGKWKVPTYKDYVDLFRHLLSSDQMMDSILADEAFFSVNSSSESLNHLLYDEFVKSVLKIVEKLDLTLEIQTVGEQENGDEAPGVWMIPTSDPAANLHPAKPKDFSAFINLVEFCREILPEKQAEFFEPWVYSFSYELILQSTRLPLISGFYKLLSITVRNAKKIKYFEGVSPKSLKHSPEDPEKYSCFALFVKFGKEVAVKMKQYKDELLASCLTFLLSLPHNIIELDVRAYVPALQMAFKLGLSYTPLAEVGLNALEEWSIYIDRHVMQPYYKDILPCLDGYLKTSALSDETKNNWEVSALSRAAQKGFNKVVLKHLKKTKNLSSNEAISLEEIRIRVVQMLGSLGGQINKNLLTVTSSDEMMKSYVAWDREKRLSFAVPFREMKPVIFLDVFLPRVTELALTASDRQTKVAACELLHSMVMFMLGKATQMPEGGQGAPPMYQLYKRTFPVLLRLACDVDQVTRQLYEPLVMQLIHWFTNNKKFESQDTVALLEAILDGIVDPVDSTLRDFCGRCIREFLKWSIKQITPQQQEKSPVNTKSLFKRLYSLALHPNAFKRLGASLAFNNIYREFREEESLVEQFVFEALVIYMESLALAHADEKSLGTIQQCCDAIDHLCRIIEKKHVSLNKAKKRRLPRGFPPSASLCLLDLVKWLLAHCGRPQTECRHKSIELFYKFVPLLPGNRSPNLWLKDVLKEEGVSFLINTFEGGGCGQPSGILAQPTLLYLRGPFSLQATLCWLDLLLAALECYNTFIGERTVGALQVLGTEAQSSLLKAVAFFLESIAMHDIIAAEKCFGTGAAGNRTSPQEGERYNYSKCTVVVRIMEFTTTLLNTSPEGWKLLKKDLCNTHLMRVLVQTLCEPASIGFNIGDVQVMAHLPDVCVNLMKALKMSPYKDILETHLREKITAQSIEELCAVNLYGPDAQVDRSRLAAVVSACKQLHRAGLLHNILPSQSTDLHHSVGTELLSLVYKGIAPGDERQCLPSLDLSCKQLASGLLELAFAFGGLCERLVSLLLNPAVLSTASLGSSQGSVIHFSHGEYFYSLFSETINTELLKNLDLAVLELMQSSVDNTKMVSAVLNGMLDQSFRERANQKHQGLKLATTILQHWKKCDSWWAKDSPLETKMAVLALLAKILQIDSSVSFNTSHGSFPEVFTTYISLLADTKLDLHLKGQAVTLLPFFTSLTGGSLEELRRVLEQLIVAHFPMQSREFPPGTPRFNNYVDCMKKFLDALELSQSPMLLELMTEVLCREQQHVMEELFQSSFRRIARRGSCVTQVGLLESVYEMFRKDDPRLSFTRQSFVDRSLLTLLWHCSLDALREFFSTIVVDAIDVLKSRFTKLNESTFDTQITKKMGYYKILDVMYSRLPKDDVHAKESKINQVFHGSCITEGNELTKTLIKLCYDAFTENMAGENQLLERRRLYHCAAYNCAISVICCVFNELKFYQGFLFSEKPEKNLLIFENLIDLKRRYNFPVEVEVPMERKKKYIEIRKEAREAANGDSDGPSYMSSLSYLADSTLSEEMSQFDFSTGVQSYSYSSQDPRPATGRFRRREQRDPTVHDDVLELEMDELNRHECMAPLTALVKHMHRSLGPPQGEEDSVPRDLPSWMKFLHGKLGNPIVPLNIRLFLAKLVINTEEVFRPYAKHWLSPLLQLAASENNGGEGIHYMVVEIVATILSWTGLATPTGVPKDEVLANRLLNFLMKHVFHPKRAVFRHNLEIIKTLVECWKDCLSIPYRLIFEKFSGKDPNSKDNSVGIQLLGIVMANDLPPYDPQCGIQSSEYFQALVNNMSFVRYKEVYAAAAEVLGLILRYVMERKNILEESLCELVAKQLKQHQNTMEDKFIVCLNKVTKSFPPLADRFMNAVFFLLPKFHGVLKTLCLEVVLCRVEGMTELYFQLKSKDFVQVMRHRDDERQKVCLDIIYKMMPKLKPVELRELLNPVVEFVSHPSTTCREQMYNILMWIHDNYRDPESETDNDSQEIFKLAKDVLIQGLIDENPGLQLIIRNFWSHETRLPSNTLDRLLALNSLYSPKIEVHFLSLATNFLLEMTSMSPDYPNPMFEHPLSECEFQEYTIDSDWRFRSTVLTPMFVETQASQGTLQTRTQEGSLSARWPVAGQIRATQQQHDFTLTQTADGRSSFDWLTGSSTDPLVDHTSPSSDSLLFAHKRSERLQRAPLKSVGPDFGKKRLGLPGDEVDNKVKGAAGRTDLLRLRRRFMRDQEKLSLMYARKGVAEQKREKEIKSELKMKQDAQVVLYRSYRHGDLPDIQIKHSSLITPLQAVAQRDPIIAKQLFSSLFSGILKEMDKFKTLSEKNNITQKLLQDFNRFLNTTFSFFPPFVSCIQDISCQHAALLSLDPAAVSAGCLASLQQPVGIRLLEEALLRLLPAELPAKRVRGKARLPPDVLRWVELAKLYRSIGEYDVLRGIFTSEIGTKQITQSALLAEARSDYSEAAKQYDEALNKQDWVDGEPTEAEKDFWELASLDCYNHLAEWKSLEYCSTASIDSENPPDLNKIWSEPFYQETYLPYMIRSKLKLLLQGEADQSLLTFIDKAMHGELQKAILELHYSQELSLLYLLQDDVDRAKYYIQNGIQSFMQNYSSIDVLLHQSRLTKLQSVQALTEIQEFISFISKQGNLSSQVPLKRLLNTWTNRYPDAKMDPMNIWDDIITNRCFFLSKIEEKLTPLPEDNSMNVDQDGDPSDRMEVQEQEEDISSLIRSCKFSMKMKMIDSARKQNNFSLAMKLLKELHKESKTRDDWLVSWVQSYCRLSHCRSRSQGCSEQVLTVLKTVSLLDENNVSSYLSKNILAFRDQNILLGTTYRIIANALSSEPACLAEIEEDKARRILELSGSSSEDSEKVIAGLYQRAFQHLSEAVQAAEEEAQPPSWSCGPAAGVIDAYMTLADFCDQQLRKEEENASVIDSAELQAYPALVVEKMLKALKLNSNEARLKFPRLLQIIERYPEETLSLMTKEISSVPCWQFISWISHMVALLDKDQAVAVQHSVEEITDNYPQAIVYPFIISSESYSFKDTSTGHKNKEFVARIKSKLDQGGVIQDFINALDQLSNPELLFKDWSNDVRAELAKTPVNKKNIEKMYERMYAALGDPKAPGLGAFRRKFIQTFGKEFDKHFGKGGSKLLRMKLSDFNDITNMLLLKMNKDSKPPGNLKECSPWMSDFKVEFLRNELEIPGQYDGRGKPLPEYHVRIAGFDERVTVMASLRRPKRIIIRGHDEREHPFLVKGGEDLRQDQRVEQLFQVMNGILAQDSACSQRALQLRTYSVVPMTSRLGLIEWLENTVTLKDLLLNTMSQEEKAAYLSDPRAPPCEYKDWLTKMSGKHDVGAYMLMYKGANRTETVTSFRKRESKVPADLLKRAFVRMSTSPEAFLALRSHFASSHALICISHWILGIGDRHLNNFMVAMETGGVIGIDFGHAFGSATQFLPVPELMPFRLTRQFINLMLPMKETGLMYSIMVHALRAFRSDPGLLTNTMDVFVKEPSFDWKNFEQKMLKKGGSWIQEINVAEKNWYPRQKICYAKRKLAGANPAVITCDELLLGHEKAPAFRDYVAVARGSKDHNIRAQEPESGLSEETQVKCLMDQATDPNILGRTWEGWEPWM

One experiment concerns the target Flag-DTL (UniProt Q9NZJ0). As to the kind of experiment: affinity purification with mass spectrometry; HEK293T transfected with Flag-DTL, X-rays (5 Gy) 48 h later, after 24 h enrichment with anti-Flag antibody, SDS-PAGE, mass spectrometry (more than two peptides with IonScore > 20).
A further experiment has as its target HA-CUL4A (UniProt Q13619). As to the kind of experiment: affinity purification with mass spectrometry; HEK293T transfected with HA-CUL4A, X-rays (5 Gy) 48 h later, after 24 h enrichment with anti-HA antibody, SDS-PAGE, mass spectrometry (more than two peptides with IonScore > 20).

No constants are given. Whether binding was seen depends on the method and setting. In cells and extracts the contact can be indirect. Here binding means that the protein was enriched with, or labelled near, the bait; the list need not be complete.

On to “CUL4A (endogenous) (from UniProt Q13619 1-759)”, for which, in the experiment with Flag-DTL, the binding result is reported as “binds”.
On to CAND1 (from UniProt Q86VP6 1-1230), for which the binding result in the experiment with HA-CUL4A is “binds”.
Same read-out and setting: for “DTL (endogenous) (from UniProt Q9NZJ0 1-730)” the value was “binds”.
Consider DNA-PKcs (from UniProt P78527 1-4128), for which the binding result with Flag-DTL is “binds”.
